Data published in the supplement of paper PMC3334620.
In all, about 33,000 sequences were measured (“E-score (-0.5 to 0.5)”: median about -8e-05, highest 2% from about 0.23 on). The list shows a part of the results.

What follows are sequences tested against T1, Nrg2 (UniProt P38082) (assay: PBM E-score (8-mer binding enrichment) (E-score (-0.5 to 0.5)); higher = stronger / more preferred TF binding). Settings: protein concentration: 100 nM; construct: GST-full length.
T1 sequence: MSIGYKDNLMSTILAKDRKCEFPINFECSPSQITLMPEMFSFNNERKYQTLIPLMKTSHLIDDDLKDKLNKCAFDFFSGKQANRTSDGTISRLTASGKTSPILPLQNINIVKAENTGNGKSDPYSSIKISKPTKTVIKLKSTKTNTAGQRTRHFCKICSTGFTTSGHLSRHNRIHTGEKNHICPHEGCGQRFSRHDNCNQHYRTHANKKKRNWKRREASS
How it was run: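 Universal all-10-mer Agilent arrays, fresh or stripped once, were converted to double-stranded form by primer extension. GST-tagged yeast transcription factors from PURExpress in vitro transcription/translation, full-length or DNA-binding domain only, were applied at about 100-200 nM and detected with fluorescent anti-GST. After masliner normalisation, the Universal PBM Analysis Suite scored each ungapped eight-base word together with its reverse complement by E-score.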
For GTGATCAA, the “PBM E-score” value was 0.103. ATGTTACC was tested, and the “PBM E-score” value was 0.00528. With CTAATGAG the “PBM E-score” value was 0.028. In the case of ATAGCACG, the “PBM E-score” value is reported as -0.163. For CCGCACGA, the “PBM E-score” value was 0.0117. For AAGGTATT, the “PBM E-score” value was 0.125. In the case of CCCATGAC, the “PBM E-score” value is reported as -0.0865. For CAATAGTC, the “PBM E-score” value was -0.0181. With ACCGGATA the “PBM E-score” value was -0.184. In the case of AAAACGTT, the “PBM E-score” value is reported as 0.00632. In the case of CCTCAAGC, the “PBM E-score” value is reported as -0.15. GTGGACTA was tested, and the “PBM E-score” value was 0.0773. In the case of GGCAGGCA, the “PBM E-score” value is reported as -0.153. With CAAATAAA the “PBM E-score” value was 0.053. ACGCGCCT was tested, and the “PBM E-score” value was -0.0319. In the case of GTGCGGGA, the “PBM E-score” value is reported as -0.0809. For AAGCGGTG, the “PBM E-score” value was -0.316. AGGAACCC was tested, and the “PBM E-score” value was 0.0453. CCTATTTA was tested, and the “PBM E-score” value was 0.0786. In the case of ACCGCACT, the “PBM E-score” value is reported as 0.0895. For CAACAGGA, the “PBM E-score” value was -0.152. AATAACAG was tested, and the “PBM E-score” value was 0.102. With AGTCGAAG the “PBM E-score” value was -0.145. With CTACGGGA the “PBM E-score” value was -0.0455. ATACCCGC was tested, and the “PBM E-score” value was 0.182. In the case of ACCTCGCT, the “PBM E-score” value is reported as 0.1. In the case of ACGTGGCG, the “PBM E-score” value is reported as -0.122. With ATGCTCTC the “PBM E-score” value was -0.118. For CTTAAGGA, the “PBM E-score” value was 0.0706. With GTTCGAAC the “PBM E-score” value was 0.233. AGGTGCGG was tested, and the “PBM E-score” value was -0.00509. In the case of TATATAGA, the “PBM E-score” value is reported as 0.118. In the case of AAACATTT, the “PBM E-score” value is reported as 0.134. AAGACAGA was tested, and the “PBM E-score” value was 0.172. For GGTGCACA, the “PBM E-score” value was 0.0914. With ATCGAAAG the “PBM E-score” value was 0.176. ATTCGCAC was tested, and the “PBM E-score” value was 0.00138. For CGTTAGAC, the “PBM E-score” value was -0.103. For AGTATGAG, the “PBM E-score” value was 0.111. In the case of CAAACTCG, the “PBM E-score” value is reported as 0.0969. AGGCCGCG was tested, and the “PBM E-score” value was -0.0431. For CAAATGAG, the “PBM E-score” value was -0.129. For GAACGGAA, the “PBM E-score” value was 0.0643. For ACCGGAAT, the “PBM E-score” value was -0.0361. In the case of GATAGAGA, the “PBM E-score” value is reported as -0.0171. For AATATTGG, the “PBM E-score” value was 0.0451. In the case of CGGATGCC, the “PBM E-score” value is reported as 0.0429. AGCCCGTC was tested, and the “PBM E-score” value was -0.283. With AAAACGAA the “PBM E-score” value was 0.139. For AATGGTTG, the “PBM E-score” value was 0.0582. ACAGACGT was tested, and the “PBM E-score” value was -0.142. With GCCACCCC the “PBM E-score” value was -0.255. For TGAAGTCA, the “PBM E-score” value was 0.0147. In the case of CATTGATA, the “PBM E-score” value is reported as 0.0883. CACATATA was tested, and the “PBM E-score” value was 0.0706. For CACGACAG, the “PBM E-score” value was 0.0324. With GCCTATTA the “PBM E-score” value was 0.16. In the case of CCCTGGAC, the “PBM E-score” value is reported as 0.295. In the case of AATTCTCC, the “PBM E-score” value is reported as 0.118. In the case of CATGAACA, the “PBM E-score” value is reported as -0.0371. In the case of ACCACTAA, the “PBM E-score” value is reported as 0.0789. In the case of AAGGTGGT, the “PBM E-score” value is reported as -0.062. In the case of ACGACAAT, the “PBM E-score” value is reported as 0.093. In the case of ATTAGAGA, the “PBM E-score” value is reported as 0.0159. CGAACAAG was tested, and the “PBM E-score” value was 0.165. In the case of CCAGTCAG, the “PBM E-score” value is reported as -0.0932. With GCATGATA the “PBM E-score” value was 0.0399. For AGTGTGTC, the “PBM E-score” value was 0.0992. With GTCCGAAA the “PBM E-score” value was 0.179. In the case of ACACCCGT, the “PBM E-score” value is reported as -0.124. GGGCTATA was tested, and the “PBM E-score” value was -0.17. For CGCAAGGA, the “PBM E-score” value was 0.163. CGCGGAGC was tested, and the “PBM E-score” value was -0.0754. In the case of GGTTTGAA, the “PBM E-score” value is reported as 0.188. For CATAGTGC, the “PBM E-score” value was -0.0272. With AAGTTAGC the “PBM E-score” value was 0.0798. ATATTCCG was tested, and the “PBM E-score” value was 0.118. TGTGCACA was tested, and the “PBM E-score” value was -0.26. CCGTTAGA was tested, and the “PBM E-score” value was -0.0454. In the case of GCAGACGA, the “PBM E-score” value is reported as 0.0406. In the case of ATACGACG, the “PBM E-score” value is reported as 0.0344. For CAACGTAG, the “PBM E-score” value was -0.0459. In the case of CTGACCCA, the “PBM E-score” value is reported as -0.0958. In the case of CGCTCTTA, the “PBM E-score” value is reported as 0.18. GCGGCACC was tested, and the “PBM E-score” value was -0.0541. In the case of GCAAGTTA, the “PBM E-score” value is reported as 0.175. GCTGCGAC was tested, and the “PBM E-score” value was -0.0909. With CCCGTTGC the “PBM E-score” value was -0.0994. CCGACGTC was tested, and the “PBM E-score” value was 0.0192. With TAGAGATA the “PBM E-score” value was 0.0396. For CATACTAA, the “PBM E-score” value was 0.114. In the case of CTGGGCAC, the “PBM E-score” value is reported as -0.168. CTATTCTC was tested, and the “PBM E-score” value was 0.118. In the case of ACTGATAA, the “PBM E-score” value is reported as 0.114. ACTCCTCT was tested, and the “PBM E-score” value was -0.04. ATCTGTCC was tested, and the “PBM E-score” value was -0.0644. AAGGAAAT was tested, and the “PBM E-score” value was 0.112. For CGGCTTAC, the “PBM E-score” value was -0.0785. With AGGCAGGA the “PBM E-score” value was -0.0909. In the case of GTGCCGAA, the “PBM E-score” value is reported as 0.0374. For CGCAGCAG, the “PBM E-score” value was -0.0325. In the case of AGTTGTAC, the “PBM E-score” value is reported as 0.103. For CGAGAGTC, the “PBM E-score” value was -0.226. AAGAACAG was tested, and the “PBM E-score” value was 0.0826. With CCATGGAG the “PBM E-score” value was -0.0379. In the case of CAAAGAAG, the “PBM E-score” value is reported as -0.0586. For GACAGAAA, the “PBM E-score” value was 0.116. AGCGGGTC was tested, and the “PBM E-score” value was -0.21. For GACAGCAC, the “PBM E-score” value was 0.0717. CTCACGAA was tested, and the “PBM E-score” value was -0.0171. AAATTGAA was tested, and the “PBM E-score” value was -0.0553. In the case of AGGAGGGG, the “PBM E-score” value is reported as -0.065. AACTCGCA was tested, and the “PBM E-score” value was 0.0422. In the case of GCACATTA, the “PBM E-score” value is reported as 0.047. For AAGAGAAC, the “PBM E-score” value was 0.0193. For CCTAGCCA, the “PBM E-score” value was -0.0877. In the case of ATATGGGA, the “PBM E-score” value is reported as 0.0558. In the case of GATACTCC, the “PBM E-score” value is reported as 0.143. With AGCGAATC the “PBM E-score” value was 0.00088. With AAACAGTC the “PBM E-score” value was -0.0566. For CAGTATAA, the “PBM E-score” value was 0.16. With GCCTAGAC the “PBM E-score” value was -0.271. In the case of CGAGTCGA, the “PBM E-score” value is reported as 0.0562. For TCGTTTCA, the “PBM E-score” value was 0.171. For CGGGAGAG, the “PBM E-score” value was -0.137. With ACATTGCC the “PBM E-score” value was -0.0505. With GATACCAA the “PBM E-score” value was 0.215. CTTGACGA was tested, and the “PBM E-score” value was -0.137. In the case of CATCGCGC, the “PBM E-score” value is reported as 0.0459. For AATAATAG, the “PBM E-score” value was 0.0626. For GCCTACGC, the “PBM E-score” value was -0.19. For CTCGCAAC, the “PBM E-score” value was 0.0442. With ACGTGGTA the “PBM E-score” value was -0.0632. In the case of CAAAAAAG, the “PBM E-score” value is reported as 0.116. For AAAGTATG, the “PBM E-score” value was 0.0248. In the case of CCCACGCA, the “PBM E-score” value is reported as 0.08. For ATTAATCC, the “PBM E-score” value was 0.0528. In the case of TCTGCTAA, the “PBM E-score” value is reported as -0.0809. In the case of AGTTAATG, the “PBM E-score” value is reported as 0.078. With ACGTGGTC the “PBM E-score” value was -0.0753. With CTTGCTAC the “PBM E-score” value was -0.00165. With ACTGGATA the “PBM E-score” value was 0.168. With AACCCCGT the “PBM E-score” value was 0.194. For ACACTTAA, the “PBM E-score” value was -0.0242. With ATGTAGGG the “PBM E-score” value was -0.0877.
